The whole screen tested about 53,000 sequences, of which about 3,700 (7%) were called active.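 Rule for the calls: active = gene knockdowns whose robust z-score for IL-1 alpha signal is at least 2 or at most -2, so actives lie on both sides; inactive = the rest.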 The list shows a part of the results.
Assay: Components of the Cytosolic LPS Sensing Pathway: Gene Identification via Genome-wide siRNA Screen;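 note: robust z of the log signal after scaling to non-targeting control siRNA wells of the plate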
Conditions: RAW264.7 macrophages, IL-1a HTRF, actives lie on both sides, screened at 100 nM (by protocol), cells primed 5 h with Pam3CSK4 first
How it was run: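 RAW264.7; siRNA 100 nM final, RNAiMAX, 48h 37 degrees C; Pam3CSK4 5 h; LipidA + TransIT-TKO 24 h; IL-1a HTRF; CellTiter-Glo viability; robust z vs negative-control median.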

Row | Sequence | z-score
1 | GGUAGAAGUCGUCUCUAACTT against Csf2 | inactive: -0.596
2 | GCCAGAAUGUGCUCAUUCGTT against Amhr2 | inactive: -0.418
3 | GGAUGUAAAGAGGAAUCUCTT against Abca16 | inactive: -0.748
4 | GCGAGAUUCUUGCUUACUCTT against Slc66a2 | inactive: -0.472
5 | GGCAAAGUAUAAAGAAGUATT against Gkap1 | active: 2.23
6 | GCUGGUUUCGGACAUAGCCTT against Actn3 | inactive: 0.557
7 | GGAGGAGCUUAGCCCUUUUTT against Bad | active: 2.28
8 | CGGAUUAGAAGAGCCAAACTT against Cd59b | inactive: 0.352
9 | CGAGAUUGCCAAGGCUCAATT against Hint1 | inactive: -0.855
10 | GGACGAUCAUGACAAGAUGTT against Psmb2 | active: -2.35
11 | GGGAUUUUCAGGGAGAUUUTT against Plekho1 | inactive: 1.46
12 | GGCAUCAGUGAGGUUUGUCTT against Olfr420 | inactive: -0.963
13 | GCCUAACAAUAGUGGAAUUTT against Ms4a13 | active: 2.76
14 | CCCGAAUGCUGCUGUAUACTT against Psd3 | inactive: -0.379
15 | GGGCAUCAUGCCUCAUGAATT against Alkbh6 | inactive: -0.901
16 | GGAAAAUCAGACCAUACUGTT against Arl3 | inactive: -0.441
17 | GCAAUAACUGGAAUAAUGGTT against Slc40a1 | inactive: 0.0985
18 | GGGACAUGAAAUAAAUGUCTT against Mag | inactive: -0.0573
19 | CCUGGACCAGAAUAAACACTT against Crtc1 | inactive: -0.162
20 | GGCAUGUUUUGGGAAGAGCTT against Btbd6 | inactive: 0.808
21 | GGGAUAAAAACAGUGGCUUTT against Slc7a12 | inactive: -0.198
22 | GGGAGUCCUUAAAAGUCGUTT against Mas1 | inactive: -0.136

Four entries from above, in CSV form.
Row,Sequence,z-score
9,CGAGAUUGCCAAGGCUCAATT against Hint1,inactive: -0.855
10,GGACGAUCAUGACAAGAUGTT against Psmb2,active: -2.35
11,GGGAUUUUCAGGGAGAUUUTT against Plekho1,inactive: 1.46
12,GGCAUCAGUGAGGUUUGUCTT against Olfr420,inactive: -0.963

Some of the entries so far, in markdown:

| Row | Sequence | z-score |
| --- | --- | --- |
| 6 | GCUGGUUUCGGACAUAGCCTT against Actn3 | inactive: 0.557 |
| 8 | CGGAUUAGAAGAGCCAAACTT against Cd59b | inactive: 0.352 |
| 9 | CGAGAUUGCCAAGGCUCAATT against Hint1 | inactive: -0.855 |
| 17 | GCAAUAACUGGAAUAAUGGTT against Slc40a1 | inactive: 0.0985 |
| 21 | GGGAUAAAAACAGUGGCUUTT against Slc7a12 | inactive: -0.198 |

(further entries)

Row | Sequence | z-score
23 | GGGUCAUUUUUUAGCCUUCTT against Vmn1r89 | inactive: 0.496
24 | CCACCAAGGAGACAUAGAUTT against Nans | active: 2.85
25 | CGAUUUUCACCAAUUGUGGTT against Diaph2 | active: -2.03
26 | GGACAUAAAGGUAAAAUGATT against Zfp275 | inactive: -1.63
27 | GGCCUUGAUGGUACCAUGUTT against Uqcr11 | inactive: -1.51
28 | GGCCUGAGAUCGAUCAUUCTT against Plcb4 | inactive: 0.425
29 | GGAAAGAGAAGAAAACAAATT against Tmem25 | inactive: -0.184
30 | GCACAGAUAAAACUAACUATT against Kcna7 | inactive: -0.603
31 | GGGAUAGCUGUCUUUCAUUTT against Extl3 | inactive: -1.02
32 | GGCAUUCUUCAAGAGGACGTT against Esrrg | inactive: -1.01
33 | GGAUGUGAAGUCAGUUUCATT against Tmem82 | inactive: -1.96
34 | GGAAACGUGGAACAUAAGATT against Gapdhs | inactive: 1.95
35 | CGUAGGAAUGAUCACAUUGTT against Olfr1136 | inactive: 0.206
36 | GGAGUAUGGCGAAUUCUAUTT against Hsp90ab1 | inactive: 1.34
37 | GCAGAUCGGUUCUCAGAUGTT against Tmem269 | inactive: 1.05
38 | GGGAAAAGAUUCAGCUAGATT against Ntn4 | inactive: -1.16
39 | GGGAGAACUAUCACCAUAATT against Wdr11 | inactive: -0.302
40 | CCAAGGGACACAUGCCAGATT against Olfr714 | inactive: 0.925
41 | GCCAUAACCUAAGACUUUATT against Adcyap1r1 | inactive: 0.0309
42 | GGCAGCCUCUGAAAUUGCUTT against Slc25a35 | inactive: -1.63
43 | GGAAUUAUGUGGAAAACAGTT against Mapk9 | inactive: 0.337
44 | GGGUCAAAUCUGCUUUUUCTT against Olfr272 | inactive: -0.287

Row | Sequence | z-score
45 | CCAAGAUACCUUUUUUGAGTT against Paox | inactive: 0.455
46 | GCUCGAAAACUGAGAGUUATT against Pcdhgb1 | active: 3.32
47 | GGUCUUAAACAGUUACAUGTT against Dmtf1 | inactive: -0.0586
48 | GGCAGUAGUUCAGUUGAUATT against Fam163a | inactive: 0.893
49 | GGUGAUUUCUUUGUGUGAUTT against Rpl22 | inactive: 0.175
50 | GCGGUCGUUGGCAAAAACUTT against Commd8 | inactive: 0.828
51 | CCAUGGAUGUAUGAGACUGTT against H2-M1 | inactive: -0.131
52 | GCGAGAAAGAAUUUAACCUTT against Sash3 | inactive: -0.592
53 | GGUUCUAUGACAGAAAUGATT against Rngtt | inactive: -0.452
54 | GCAUGUUCGCACGUGUCAATT against 5330439B14Rik | inactive: -1.05
55 | GGCAACAGACAAGAACAAGTT against Plpp7 | inactive: -0.221
56 | GGUCAUCUCUCUUUAGCCUTT against Haspin | inactive: -0.255
57 | GGCACAAGACCUUCAGCACTT against Olfr566 | inactive: 0.461
58 | GGCUUCAUGGUUCCCUGUATT against Rhox1 | inactive: -1.22
59 | CGACCUCAGACUGAAGGACTT against Msr1 | inactive: 1.43
60 | GCUAGCUGUAAAACAUUGCTT against Nppc | inactive: 1.19
61 | GGGCUGGAUUUUGAUGAUGTT against Arnt | inactive: 0.0297
62 | GGGACUGGAUUUCUGUAUUTT against Derl1 | inactive: -0.694
63 | CGACAUAGCUACCAGUCUGTT against Ido1 | inactive: 0.042
64 | GGAUGUGGAGAACAGCUUCTT against Ppt1 | inactive: -0.768
65 | GGCCCAACGACAUUUAUGUTT against Pop7 | inactive: -1.38
66 | GGUGCUACGGGACAUUGAGTT against Kmt5c | inactive: 0.208

Row | Sequence | z-score
67 | GCAGAUGCAUGAGAAAUCGTT against Aplnr | inactive: -0.992
68 | CCUUUGUCCGGUCCAUUCCTT against Hk1 | inactive: -0.654
69 | GGACUUUCUGGUCUGCCCUTT against Gli1 | inactive: 1.97
70 | GGAGGCAUAUCUAGGCACUTT against Cdkn1a | inactive: -1.82
71 | GGAAAAUCUUGACUUCAUCTT against Cbwd1 | inactive: -0.316
72 | GCUGUGGACGGACUCUAUATT against Dhodh | inactive: 0.00503
73 | GCUGAGGAAAUGCGAAGUCTT against Tmem98 | inactive: 0.0406
74 | GGGAAGUUUUAUGGUUGAUTT against Rad51c | inactive: 0.333
75 | GGAGAAUGUUUUUGACUGGTT against Mfsd6l | inactive: 0.471
76 | GGCAUCCAUAAAGAACAGATT against Ranbp10 | inactive: -0.85
77 | CGUUGUGUUCUGAACAACCTT against Pced1a | inactive: 0.419
78 | CGAAGGGCAACGGUUCUCATT against Akr1b7 | inactive: 0.427
79 | GGCUGUCCUGGUCCAAUAUTT against Slc35a2 | inactive: -1.43
80 | CCUAACCAAGAUCCAAUCUTT against 6330549D23Rik | active: -2.85
81 | GGUUGCCAAAUACUGCUGUTT against Ppm1a | inactive: -1.41
82 | GCCUUUGCUGUUAUACAAUTT against Wdr19 | inactive: 0.581
83 | GGCUUAUUAGACGGAUGAATT against Rpl7 | inactive: 0.858
84 | GGGACUUCUCCCAAUGUUGTT against Ucp2 | inactive: -1.18
85 | GGAGAUAUUCUGGUAUGACTT against Orc1 | inactive: -1.29
86 | GGAAAAAGACUUCUAUCACTT against Ly6g6g | active: -2.03
87 | GCGUGUUCUAUCCUAUUUCTT against Sqle | inactive: 0.0541
88 | GGAGUGUGUGCUUUUAAAATT against Rabggta | inactive: 0.248

Row | Sequence | z-score
89 | GGCUCGUCUCAUGUUUUGGTT against Arfrp1 | inactive: 0.303
90 | GGAAGAAGGAAGGUUCAGATT against Strm | inactive: -0.581
91 | GAAAUGGGCAGAGAGAUCGTT against Speer3 | inactive: -0.422
92 | GGGUGGAGACCAAACAAUATT against Npy1r | inactive: 1.21
93 | GGAAGGAACCGUUCUAUAATT against Serpinc1 | inactive: 0.221
94 | GCUACAUGGAUUGGAUUAATT against C1rl | inactive: 0.682
95 | GCCAGCUACCGAGUCUAUUTT against Tkt | active: 2.8
96 | GCUCUACAAGAAUGCUCGGTT against Vps28 | inactive: 0.748
97 | GAGGGCAUAAUGGUUUUUATT against H3c3 | inactive: 0.624
98 | GCCUGAAAUGAAAGUUGCUTT against Olfr1136 | inactive: -1.35
99 | GACAUGGACAUCUACACUATT against H2-Q8 | inactive: 0.106
100 | GGAGGUACAGAUAGAGACUTT against Tcl1b4 | inactive: 0.13
101 | CCUGGCUUACAGUACAUGCTT against Adarb1 | inactive: 1.21
102 | GCCAUACUUUAAGAGUGUGTT against Nipal2 | inactive: -0.841
103 | GGUCUGACCUGUUUGAUCATT against Fhod3 | inactive: 0.596
104 | GGUCUGUUUGACAUUAUACTT against Pdha1 | inactive: -0.22
105 | GGAAACAGCACCUUGUUGATT against Olfr205 | inactive: 1.55
106 | GGCUCUGAUGUUUCUAAAATT against Hdac10 | inactive: 1.29
107 | GCCUUUUGUACUAAGGUCCTT against Zfp715 | inactive: 1.65

— PubChem BioAssay AID1508600 (Functional Genomics Laboratory (NCATS/FGL), 2020)
